# Measurements reported in patent publication US7893056B2, “Peptide deformylase inhibitors” (GlaxoSmithKline LLC, priority 2007, dated 2011).
# Some of these results come from one statement about several compounds together.
# How the values were obtained:
# [1] = target: T1, Streptococcus pneumoniae PDF (Streptococcus pneumoniae serotype 4, UniProt Q9F2F0); experiment: PDF IC50 assay (FDH-coupled), S. pneumoniae PDF; type: biochemical; conditions: read-out: IC50, inhibition of S. pneumoniae PDF activity
# T1 sequence (Q9F2F0 1-203): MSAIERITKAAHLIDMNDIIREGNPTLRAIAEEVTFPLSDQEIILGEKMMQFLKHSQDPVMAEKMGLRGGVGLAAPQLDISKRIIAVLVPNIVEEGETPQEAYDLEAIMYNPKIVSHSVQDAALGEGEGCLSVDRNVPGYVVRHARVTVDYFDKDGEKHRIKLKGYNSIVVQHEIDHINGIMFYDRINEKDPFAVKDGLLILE
# [2] = target: T2, Staphylococcus aureus PDF (SaPDF) (Staphylococcus aureus, UniProt P68826); experiment: PDF IC50 assay (FDH-coupled), S. aureus PDF; type: biochemical; conditions: read-out: IC50, inhibition of S. aureus PDF activity
# T2 sequence (P68826 1-183): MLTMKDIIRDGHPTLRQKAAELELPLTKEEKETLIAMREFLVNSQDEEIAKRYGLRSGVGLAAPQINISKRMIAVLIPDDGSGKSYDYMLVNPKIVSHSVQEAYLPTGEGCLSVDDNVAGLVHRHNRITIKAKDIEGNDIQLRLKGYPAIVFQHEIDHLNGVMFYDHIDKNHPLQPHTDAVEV
SMILES,IC50 [1] [nM],IC50 [2] [nM]
"Cc1nc(NNC(=O)[C@H](CC2CCCC2)CN(O)C=O)c(F)c(N2CCC[C@H]2CCO)n1 [Example 247, [(2R)-2-(Cyclopentylmethyl)-3-(2-{5-fluoro-6-[(2S)-2-(2-hydroxyethyl)-1-pyrrolidinyl]-2-methyl-4-pyrimidinyl}hydrazino)-3-oxopropyl]hydroxyformamide]",≤ 100,≤ 100
"CSc1nc(NNC(=O)[C@H](CC2CCCC2)CN(O)C=O)c(F)c(N2CCN(C)C[C@@H]2C)n1 [Example 131, ((2R)-2-(Cyclopentylmethyl)-3-{2-[6-[(2S)-2,4-dimethyl-1-piperazinyl]-5-fluoro-2-(methylthio)-4-pyrimidinyl]hydrazino}-3-oxopropyl)hydroxyformamide]",≤ 100,≤ 100
"C[C@@H]1CN(C)CCN1c1nc(Cl)nc(NNC(=O)[C@H](CC2CCCC2)CN(O)C=O)c1F [Example 63, [(2R)-3-(2-{2-Chloro-6-[(2R)-2,4-dimethyl-1-piperazinyl]-5-fluoro-4-pyrimidinyl}hydrazino)-2-(cyclopentylmethyl)-3-oxopropyl]hydroxyformamide]",≤ 100,≤ 100
"Cc1nc(NNC(=O)[C@H](CC2CCCC2)CN(O)C=O)c(F)c(N2CCN(C)[C@@H]3CCCC[C@@H]32)n1 [Example 227, ((2R)-2-(Cyclopentylmethyl)-3-{2-[5-fluoro-2-methyl-6-(4-methyloctahydro-1(2H)-quinoxalinyl)-4-pyrimidinyl]hydrazino}-3-oxopropyl)hydroxyformamide]",≤ 100,≤ 100
"CSc1nc(NNC(=O)[C@H](CC2CCCC2)CN(O)C=O)c(F)c(N2CCN(C)[C@@H](C)C2)n1 [Example 121, ((2R)-2-(Cyclopentylmethyl)-3-{2-[6-[(3S)-3,4-dimethyl-1-piperazinyl]-5-fluoro-2-(methylthio)-4-pyrimidinyl]hydrazino}-3-oxopropyl)hydroxyformamide]",≤ 100,≤ 100
"COC[C@H]1CCCN1c1nc(Cl)nc(NNC(=O)[C@H](CC2CCCC2)CN(O)C=O)c1F [Example 194, [(2R)-3-[2-(2-Chloro-5-fluoro-6-{(2R)-2-[(methyloxy)methyl]-1-pyrrolidinyl}-4-pyrimidinyl)hydrazino]-2-(cyclopentylmethyl)-3-oxopropyl]hydroxyformamide]",≤ 100,≤ 100
"CN1CCN(c2nc(Cl)nc(NNC(=O)[C@H](CC3CCCC3)CN(O)C=O)c2F)[C@H]2CCCC[C@H]21 [Example 226, [(2R)-3-{2-[2-Chloro-5-fluoro-6-(4-methyloctahydro-1(2H)-quinoxalinyl)-4-pyrimidinyl]hydrazino}-2-(cyclopentylmethyl)-3-oxopropyl]hydroxyformamide]",≤ 100,≤ 100
"CSc1nc(NNC(=O)[C@H](CC2CCCC2)CN(O)C=O)c(F)c(N2CCOC(CO)C2)n1 (mixture of isomers) [Example 154, ((2R)-2-(Cyclopentylmethyl)-3-{2-[5-fluoro-6-[2-(hydroxymethyl)-4-morpholinyl]-2-(methylthio)-4-pyrimidinyl]hydrazino}-3-oxopropyl)hydroxyformamide]",≤ 100,≤ 100
"CCNc1nc(SC)nc(NNC(=O)[C@H](CC2CCCC2)CN(O)C=O)c1F [Example 42, ((2R)-2-(Cyclopentylmethyl)-3-{2-[6-(ethylamino)-5-fluoro-2-(methylthio)-4-pyrimidinyl]hydrazino}-3-oxopropyl)hydroxyformamide]",≤ 100,≤ 100
"C[C@H]1CN(C)CCN1c1nc(C(F)F)nc(NNC(=O)[C@H](CC2CCCC2)CN(O)C=O)c1F [Example 96, [(2R)-2-(Cyclopentylmethyl)-3-(2-{2-(difluoromethyl)-6-[(2S)-2,4-dimethyl-1-piperazinyl]-5-fluoro-4-pyrimidinyl}hydrazino)-3-oxopropyl]hydroxyformamide]",≤ 100,≤ 100
"O=CN(O)C[C@@H](CC1CCCC1)C(=O)NNc1nc(Cl)nc(N2CCOCC2)c1F [Example 52, [(2R)-3-{2-[2-Chloro-5-fluoro-6-(4-morpholinyl)-4-pyrimidinyl]hydrazino}-2-(cyclopentylmethyl)-3-oxopropyl]hydroxyformamide]",≤ 100,≤ 100
"CCCNc1nc(SC)nc(NNC(=O)[C@H](CC2CCCC2)CN(O)C=O)c1F [Example 46, ((2R)-2-(Cyclopentylmethyl)-3-{2-[5-fluoro-2-(methylthio)-6-(propylamino)-4-pyrimidinyl]hydrazino}-3-oxopropyl)hydroxyformamide]",≤ 100,≤ 100
"Cc1nc(NNC(=O)[C@H](CC2CCCC2)CN(O)C=O)c(F)c(N2CCN(C)[C@H]3CCCC[C@H]32)n1 [Example 222, ((2R)-2-(Cyclopentylmethyl)-3-{2-[5-fluoro-2-methyl-6-(4-methyloctahydro-1(2H)-quinoxalinyl)-4-pyrimidinyl]hydrazino}-3-oxopropyl)hydroxyformamide]",≤ 100,≤ 100
"Cc1nc(NNC(=O)[C@H](CC2CCCC2)CN(O)C=O)c(F)c(N2CC(C)(N3CCCC3)C2)n1 [Example 182, [(2R)-2-(Cyclopentylmethyl)-3-(2-{5-fluoro-2-methyl-6-[3-methyl-3-(1-pyrrolidinyl)-1-azetidinyl]-4-pyrimidinyl}hydrazino)-3-oxopropyl]hydroxyformamide]",≤ 100,≤ 100
"O=CN(O)C[C@@H](CC1CCCC1)C(=O)NNc1nc(Cl)nc(N2CCN3CCC[C@H]3C2)c1F [Example 58, [(2R)-3-(2-{2-Chloro-5-fluoro-6-[(8aS)-hexahydropyrrolo[1,2-a]pyrazin-2(1H)-yl]-4-pyrimidinyl}hydrazino)-2-(cyclopentylmethyl)-3-oxopropyl]hydroxyformamide]",≤ 100,≤ 100
"COc1nc(NNC(=O)[C@H](CC2CCCC2)CN(O)C=O)c(F)c(N2CCN(C)[C@H](C)C2)n1 [Example 80, ((2R)-2-(Cyclopentylmethyl)-3-{2-[6-[(3R)-3,4-dimethyl-1-piperazinyl]-5-fluoro-2-(methyloxy)-4-pyrimidinyl]hydrazino}-3-oxopropyl)hydroxyformamide]",≤ 100,≤ 100
"Cc1nc(NNC(=O)[C@H](CC2CCCC2)CN(O)C=O)c(F)c(N2CC[C@@H](N(C)C)[C@H]2C)n1 [Example 146, [(2R)-2-(Cyclopentylmethyl)-3-(2-{6-[(2R,3R)-3-(dimethylamino)-2-methyl-1-pyrrolidinyl]-5-fluoro-2-methyl-4-pyrimidinyl}hydrazino)-3-oxopropyl]hydroxyformamide]",≤ 100,≤ 100
"CSc1nc(NNC(=O)[C@H](CC2CCCC2)CN(O)C=O)c(F)c(N2CC[C@H](O)C2)n1 [Example 44, ((2R)-2-(Cyclopentylmethyl)-3-{2-[5-fluoro-6-[(3S)-3-hydroxy-1-pyrrolidinyl]-2-(methylthio)-4-pyrimidinyl]hydrazino}-3-oxopropyl)hydroxyformamide]",≤ 100,≤ 100
"Cc1nc(NNC(=O)[C@H](CC2CCCC2)CN(O)C=O)c(F)c(N2CCC(c3cccnc3)C2)n1 (mixture of isomers) [Example 153, [(2R)-2-(Cyclopentylmethyl)-3-(2-{5-fluoro-2-methyl-6-[3-(3-pyridinyl)-1-pyrrolidinyl]-4-pyrimidinyl}hydrazino)-3-oxopropyl]hydroxyformamide]",≤ 100,≤ 100
"CCCC[C@H](CN(O)C=O)C(=O)NNc1nc(Cl)nc(N2CCN(C)C[C@H]2C)c1F [Example 183, {(2R)-2-[(2-{2-Chloro-6-[(2R)-2,4-dimethyl-1-piperazinyl]-5-fluoro-4-pyrimidinyl}hydrazino)carbonyl]hexyl}hydroxyformamide]",≤ 100,≤ 100
"O=CN(O)C[C@@H](CC1CCCC1)C(=O)NNc1nc(Cl)nc(N2CCN3CCOC[C@H]3C2)c1F [Example 169, [(2R)-3-(2-{2-Chloro-5-fluoro-6-[(9aR)-hexahydropyrazino[2,1-c][1,4]oxazin-8(1H)-yl]-4-pyrimidinyl}hydrazino)-2-(cyclopentylmethyl)-3-oxopropyl]hydroxyformamide]",≤ 100,≤ 100
"CCCNc1nc(Cl)nc(NNC(=O)[C@H](CC2CCCC2)CN(O)C=O)c1F [Example 60, [(2R)-3-{2-[2-Chloro-5-fluoro-6-(propylamino)-4-pyrimidinyl]hydrazino}-2-(cyclopentylmethyl)-3-oxopropyl]hydroxyformamide]",≤ 100,≤ 100
"CCc1nc(NNC(=O)[C@H](CC2CCCC2)CN(O)C=O)c(F)c(N2CCN3CCC[C@@H]3C2)n1 [Example 178, [(2R)-2-(Cyclopentylmethyl)-3-(2-{2-ethyl-5-fluoro-6-[(8aR)-hexahydropyrrolo[1,2-a]pyrazin-2(1H)-yl]-4-pyrimidinyl}hydrazino)-3-oxopropyl]hydroxyformamide]",≤ 100,≤ 100
"Cc1nc(NNC(=O)[C@H](CC2CCCC2)CN(O)C=O)c(F)c(N2CCN(C)C3(CC3)C2)n1 [Example 275, ((2R)-2-(Cyclopentylmethyl)-3-{2-[5-fluoro-2-methyl-6-(4-methyl-4,7-diazaspiro[2.5]oct-7-yl)-4-pyrimidinyl]hydrazino}-3-oxopropyl)hydroxyformamide]",≤ 100,≤ 100
